Assay results reported in PubChem BioAssay AID493014 (National Center for Advancing Translational Sciences (NCATS), 2011).
Out of some 340,000 compounds screened, about 170 (0.05%) were called active. Inconclusive results, whose numbers are uncertain, are shown with a selection of clear calls. The call rests on the fitted dose curve; in most records, active means well fitted inhibition curve with a large enough effect in the signal ratio, with a control signal flat (not every such curve was filed as active); inconclusive means small, poorly fitted or top-dose-only effect, or effect the other way, or a change in a side signal; inactive means flat fitted curve, though single readings scatter; the % refers to the signal ratio. A potency beside an inconclusive call is a rough fit, not a confirmed value.

Assay: qHTS Assay to Find Inhibitors of Chronic Active B-Cell Receptor Signaling;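 on activity change, negative = inhibition: plate controls were basal doxycycline-induced cells for no effect and cells given 10 µM MG132 for full effect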
Conditions: ABC-DLBCL IkBa-CBG/CBR reporter, luminescence ratio (green luciferase fused to IkBa over red control in TMD8 lymphoma cells), 4 h; activity change, negative = inhibition: at 46.1 µM (top of the series)
Method in brief: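 Compounds up to 46 uM were incubated four hours with TMD8 cells whose green CBG68 luciferase is fused to IkappaBalpha; red CBR luminescence normalised the signal, and concentration-effect curves were fitted to fusion, red and ratio data.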
Potency means the concentration at half of the fitted maximal effect.

Q: With `CCCc1nnc2n1N=C(c1ccc(-c3cc(Cl)ccc3Cl)o1)CS2` as the molecule, how does the Potency read?
A: Its Potency is inconclusive: 16.4 µM [falling, partial curve].

Q: With `CNc1c(NC(=O)COc2ccc(Cl)cc2)c(=O)oc2ccccc12` as the molecule, how does the Potency read?
A: Its Potency is inconclusive: 22.4 µM [falling, single point].

Q: With `CCS(=O)(=O)N1Cc2ccccc2CC1C(=O)Nc1cccc(OC)c1` (stereo not drawn) as the molecule, how does the activity change, negative = inhibition read?
A: Its activity change, negative = inhibition is inconclusive: -10.7%.

Q: With `CNc1ccc(Br)cc(C(=O)/C=C/c2cc(OC)ccc2OC)c1=O` as the molecule, how does the activity change, negative = inhibition read?
A: The activity change, negative = inhibition was inconclusive: -21.3%.

Q: Which activity change, negative = inhibition does the source give for `O=S(=O)(Nc1ccccc1C(F)(F)F)c1ccc(-c2ccccn2)s1` here?
A: The activity change, negative = inhibition was inconclusive: -1.32%.

Q: Which “activity change, negative = inhibition” value does the source give for `CCN1C(=O)C(CC(=O)NC)N(NC(=O)c2ccccc2)C1=S` (stereo not drawn) here?
A: Its value is inactive: 0.872%.

Q: For `COc1cc(C(=O)Nc2cc(S(C)(=O)=O)ccc2Cl)ccc1OCC(=O)N1CCOCC1`, which activity change, negative = inhibition is on record?
A: Its activity change, negative = inhibition is inconclusive: 4.91%.

Q: Which Potency does the source give for `O=C(O)c1cccc(Nc2ccc([N+](=O)[O-])cn2)c1` here?
A: The Potency was inconclusive: 22.4 µM [falling, single point].

Q: Which activity change, negative = inhibition does the source give for `Cc1cc2c(c(=O)o1)C(c1cccs1)C(C#N)=C(N)O2` (stereo not drawn) here?
A: Its activity change, negative = inhibition is inconclusive: -1.64%.

Q: Which “activity change, negative = inhibition” value does the source give for `O=C(c1ccc(CN2CCc3ccccc3C2)cc1)N1CCN(c2ccccc2)CC1` here?
A: Its value is inactive: 1.17%.

Q: For `Cc1ccccc1Nc1nc(Cl)c(C=O)s1`, which Potency is on record?
A: Its Potency is inconclusive: 6.31 µM [falling, partial curve, poor fit].

Q: Which activity change, negative = inhibition does the source give for `COc1ccccc1CNC(=O)c1ccc2ccccc2n1` here?
A: Its activity change, negative = inhibition is inconclusive: -26%.

Q: For `O=C1NN(c2ccccc2)C(=O)/C1=C\c1coc2ccc(O)cc2c1=O`, which activity change, negative = inhibition is on record?
A: Its activity change, negative = inhibition is inconclusive: -0.726%.

Q: For `Cc1ccc(Oc2nc3ccccn3c(=O)c2/C=C(\C#N)C(=O)NC2CCS(=O)(=O)C2)c(C)c1` (stereo not drawn), which activity change, negative = inhibition is on record?
A: The activity change, negative = inhibition was inconclusive: -14.4%.

Q: With `Cc1nc(N)c(C#N)c(-c2ccccc2)c1C` as the molecule, how does the activity change, negative = inhibition read?
A: The activity change, negative = inhibition was inconclusive: 3.95%.

Q: For `S=C(NCc1ccc(Cl)cc1)NCc1ccco1`, which activity change, negative = inhibition is on record?
A: The activity change, negative = inhibition was inconclusive: 3.84%.

Q: Which Potency does the source give for `COC(=O)c1sccc1NC(=S)Nc1ccc(C)cc1` here?
A: The Potency was inconclusive: 12.6 µM [falling, single point].

Q: Which activity change, negative = inhibition does the source give for `Cc1ccc2cc3c(nc2c1)OCC3` here?
A: The activity change, negative = inhibition was inconclusive: 1.31%.

Q: Which activity change, negative = inhibition does the source give for `CNc1nc(-c2c(C)[nH]c3ccc(OC)cc23)cs1` here?
A: Its activity change, negative = inhibition is inconclusive: 1.47%.

Q: Which activity change, negative = inhibition does the source give for `Cc1ccc(-c2nnc(-c3ccc(Br)cc3)o2)o1` here?
A: The activity change, negative = inhibition was inconclusive: -3.1%.

Q: For `O=C(COC(=O)Cc1ccccc1F)NCCNC(=O)COC(=O)Cc1ccccc1F`, which activity change, negative = inhibition is on record?
A: The activity change, negative = inhibition was inconclusive: 8.05%.

Q: With `COc1ccc(NC(=O)N/C=C/c2ccccc2)cc1` as the molecule, how does the activity change, negative = inhibition read?
A: Its activity change, negative = inhibition is inconclusive: 2.07%.

Q: With `Cn1c(SCC(=O)Nc2sccc2C#N)nnc1-c1ccccc1` as the molecule, how does the activity change, negative = inhibition read?
A: Its activity change, negative = inhibition is inconclusive: 3.89%.

Q: For `Cc1cc(C)c2nc(N3CCC(C(=O)NCCCN4CC(C)CC(C)C4)CC3)sc2c1` (stereo not drawn), which Potency is on record?
A: Its Potency is inconclusive: 6.31 µM [falling, partial curve, poor fit].

Q: For `NC(N)=N/N=C/c1ccc(OS(=O)(=O)c2ccccc2)cc1`, which activity change, negative = inhibition is on record?
A: Its activity change, negative = inhibition is inconclusive: -20.8%.

Q: For `Cc1cccc(NC(=O)C2CCCN(S(=O)(=O)c3cccc4nsnc34)C2)n1` (stereo not drawn), which activity change, negative = inhibition is on record?
A: The activity change, negative = inhibition was inconclusive: 8.42%.

Q: With `O=C1C2C3C=CC(C3)C2C(=O)N1CC1CCCO1` (stereo not drawn) as the molecule, how does the activity change, negative = inhibition read?
A: Its activity change, negative = inhibition is inconclusive: 5.07%.

Q: With `CC(=O)N1CCC(=NNc2ncc(C(F)(F)F)cc2Cl)CC1` as the molecule, how does the “activity change, negative = inhibition” value read?
A: Its value is inactive: -4.49%.

Q: Which activity change, negative = inhibition does the source give for `CCC1CCCCN1CCCNC(=O)CN1C(=O)CSc2ccc(S(=O)(=O)N3CCC(C)CC3)cc21` (stereo not drawn) here?
A: Its activity change, negative = inhibition is inconclusive: -23.7%.

Q: With `O=C(Oc1c(CN2CCOCC2)cc(Cl)c2cccnc12)c1ccccc1` as the molecule, how does the Potency read?
A: The Potency was inconclusive: 5.62 µM [falling, single point].

Q: For `COc1ccccc1OCCNS(=O)(=O)c1ccc2oc3ccccc3c2c1`, which Potency is on record?
A: The Potency was inconclusive: 3.66 µM [falling, partial curve, poor fit].

Q: With `N#Cc1c(-c2ccc(F)cc2)cc(-c2cccnc2)nc1N` as the molecule, how does the “activity change, negative = inhibition” value read?
A: The value was inactive: -0.749%.

Q: With `CCn1ncc(C2=NOC(C(=O)NCc3ccccc3)C2)c1C` (stereo not drawn) as the molecule, how does the Potency read?
A: The Potency was inconclusive: 6.51 µM [falling, full curve].

Q: Which activity change, negative = inhibition does the source give for `COc1ccc(C(=O)N/C(=C\c2cccc([N+](=O)[O-])c2)C(=O)Nc2cccc(C(=O)O)c2)cc1` here?
A: The activity change, negative = inhibition was inconclusive: 2.84%.

Q: Which activity change, negative = inhibition does the source give for `Nc1ccc(C(=O)Oc2ccc([N+](=O)[O-])cc2)cc1` here?
A: The activity change, negative = inhibition was inconclusive: 13.8%.

Q: For `Clc1ccc2c(N/N=C/c3ccc(Br)cc3)ccnc2c1`, which activity change, negative = inhibition is on record?
A: Its activity change, negative = inhibition is inconclusive: 0.793%.

Q: For `CCCNC(=O)c1ccc2c(=O)c(O)c(-c3ccc(C)cc3)[nH]c2c1`, which “activity change, negative = inhibition” value is on record?
A: The value was inactive: 0.369%.

Q: With `CC(C)(C)OC(=O)CNC(=O)c1[nH]cnc1C(=O)N[C@@H](Cc1ccccc1)C(=O)OCc1ccccc1` as the molecule, how does the activity change, negative = inhibition read?
A: Its activity change, negative = inhibition is inconclusive: -4.79%.

Q: With `NCCOc1ccccc1Cc1ccccc1` as the molecule, how does the Potency read?
A: Its Potency is inconclusive: 29.1 µM [falling, single point].

Q: For `COc1ccc(C(=O)NCC(=O)NCC(=O)OCc2ccc(Br)cc2)cc1`, which activity change, negative = inhibition is on record?
A: Its activity change, negative = inhibition is inconclusive: 1.17%.

Q: Which “activity change, negative = inhibition” value does the source give for `Cc1nnc2n(-c3ccccc3)c(=O)c3c4c(sc3n12)COC(C(C)C)C4` (stereo not drawn) here?
A: Its value is inactive: 0.352%.

Q: With `Cc1ccccc1NC(=O)Cc1c[nH]c2ccccc12` as the molecule, how does the Potency read?
A: Its Potency is inconclusive: 11.2 µM [falling, partial curve, poor fit].

Q: For `Cc1cc(O)c(C(C)C)cc1N=Cc1ccccc1O`, which Potency is on record?
A: Its Potency is inconclusive: 1.78 µM [falling, partial curve, poor fit].

Q: With `Cc1cccc(OCC(O)CN2CCNCC2)c1` (stereo not drawn) as the molecule, how does the “activity change, negative = inhibition” value read?
A: Its value is inactive: 10.4%.

Q: Which activity change, negative = inhibition does the source give for `Cc1ccc(-c2csc(NC(=O)C3CCN(S(=O)(=O)c4cccs4)CC3)n2)cc1` here?
A: The activity change, negative = inhibition was inconclusive: 8.85%.

Q: For `CN(CCC#N)C(=O)COC(=O)c1ccc(Cl)c(S(N)(=O)=O)c1`, which “activity change, negative = inhibition” value is on record?
A: The value was inactive: -5.09%.

Q: For `Cc1ccc(CC2CC(=O)N(c3cc(Cl)ccn3)C2=O)cc1` (stereo not drawn), which “activity change, negative = inhibition” value is on record?
A: Its value is inactive: -0.0248%.

Q: For `COc1ccc(OC)c(C(O)c2coc3ccc(O)c(CN(C)C)c23)c1` (stereo not drawn), which activity change, negative = inhibition is on record?
A: The activity change, negative = inhibition was inconclusive: -13.9%.

Q: With `CCCC(O)(c1ccc(Cl)cc1)C(CN1CCOCC1)c1ccc(Cl)cc1` (stereo not drawn) as the molecule, how does the activity change, negative = inhibition read?
A: Its activity change, negative = inhibition is inconclusive: -0.252%.

Q: With `COc1ccc(NC(=O)N(C)C[C@H]2Oc3ccc(NS(=O)(=O)c4ccc(F)cc4)cc3C(=O)N([C@H](C)CO)C[C@@H]2C)cc1` as the molecule, how does the activity change, negative = inhibition read?
A: Its activity change, negative = inhibition is inconclusive: 2.34%.

Q: Which “activity change, negative = inhibition” value does the source give for `CC1c2ccsc2CCN1S(=O)(=O)c1ccccc1` (stereo not drawn) here?
A: The value was inactive: 5.61%.

Q: For `Cc1cc(C(C#N)c2cccc(Cl)c2)n2ncnc2n1` (stereo not drawn), which “activity change, negative = inhibition” value is on record?
A: Its value is inactive: 11.1%.

Q: For `O=Cc1ccc(OCc2ccc3c(c2)OCO3)cc1`, which “activity change, negative = inhibition” value is on record?
A: Its value is inactive: -0.292%.
